# Experimental data taken from patent publication US20200247851A1, “Methods For Generating Epitopes For Binding To Recognition Molecules By Templated Assembly” (TriBiotica LLC, priority 2017, published 2020).
# Test system: biotinylated anti-BRD7 Fab (murine IgG1 isotype) (Mus musculus)
# Test: pull-down
# Conditions: PBSM; purified native protein; protein details: biotinylated, ThermoFisher; single-stranded DNA
sequence,measurement,value
GCAAAGACATCTGGACACGCCACTTATAGTCTACGTGAAGCACTGCGCTGGAACAGCCTAAAAAAGGAGAAGGAGACTTAGAGGC [#136 unselected Right-aptamer],binding result,no binding

# The exact form of at least one protein or probe is not confirmed. No signal at the amounts used counts as a negative.
